Results: patent US8916605B2, “Compounds and methods for treating cancer and viral infections” (priority 2009, dated 2014)
For part of these data: The name of at least one read-out is uncertain. Some entries share one result that the patent states for a list of compounds.

Key:
U373 astroglioma cells = assay: Long term exposure, tetrazole reduction (CIMA) proliferation assay (Example 6); format: cell-based; conditions: test concentrations 1 and 5 μg/ml
Method: (§1) Compound I(a) was termed CMPD A (LI568-026-02).
(§2) Cells were passaged as required by trypsinization.
(§3) Assay conditions: The effects of the test compound were assessed under long term exposure conditions. Cells were propagated as normal in T25 flasks in complete culture media supplemented with comparatively low concentrations of the compound (0, 1 and 5 μg/ml) for 28 days. At various times post-exposure, changes in proliferation rates were assessed using a standard CIMA assay.
(§4) For the current study, cells that have been exposed to the compound were seeded in 96-well plates and proliferation rates measured over 24 and 72 h periods for comparison to that of similarly aged untreated cells.

[1] = tested on: SH-SY5Y neuroblastoma cells; assay: as above; format: cell-based; conditions: test concentrations 1 and 5 μg/ml
Method: as §1, §2, §3, §4

[2] = tested on: neuroglioma and neuroblastoma cell lines, non-transformed human neurons; assay: MTT (CIMA) cell proliferation assay, all cell lines evaluated (Example 4)
[3] = acute treatment regimen (24 h), any cell line, LD50<0.25 mg/ml not detected
[4] = any of the cell lines evaluated, LD50<0.1 mg/ml not detected

| SMILES | 50% lethal dose (LD50) (U373 astroglioma cells) | 50% lethal dose (LD50) [1] | LD50 [2, 3] [mg/mL] | LD50 [2, 4] [mg/mL] |
| --- | --- | --- | --- | --- |
| O=CCCCN1C(=O)c2ccccc2C1=O [Compound I(a), 4-(1,3-dioxo-1,3-dihydro-2H-isoindol-2-yl)butanal] | neither of the test concentrations proved to be a 50% lethal dose | neither of the test concentrations proved to be a 50% lethal dose | ≥ 0.25 | ≥ 0.1 |
| CC(C)(C)OC(=O)N1CCCC1O (stereo not drawn) [I(b), tert-butyl 2-hydroxypyrrolidine-1-carboxylate] | – | – | ≥ 0.25 | ≥ 0.1 |
